These are yes or no findings as the source states them, for the method shown. Binding seen in cells or lysates may run through a third protein. Some entries that bind do so weakly or less than the wild type.
Key:
[1] = target: E2F1 (mouse (endogenous in MPC5)) (UniProt Q61501); experiment: co-IP; anti-OCRL1, anti-CCND1, anti-E2F1 or anti-CDKN2D antibody (control IgG) on Protein-G Dynabeads in PBS with 0.02% Tween; total cell lysate of cultured podocytes added, rotated 24 h; eluted proteins detected by immunoblot; endogenous proteins
[2] = target: T1, CDKN2D (mouse (endogenous in MPC5)) (UniProt Q60773); experiment: as above
T1 sequence: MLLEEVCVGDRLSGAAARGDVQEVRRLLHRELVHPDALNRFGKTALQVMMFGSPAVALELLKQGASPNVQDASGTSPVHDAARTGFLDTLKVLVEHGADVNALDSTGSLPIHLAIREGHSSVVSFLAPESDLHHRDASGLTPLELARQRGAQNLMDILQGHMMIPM

By UniProt entry, the sequences of proteins in these tests, tags left out.
UniProt Q61501: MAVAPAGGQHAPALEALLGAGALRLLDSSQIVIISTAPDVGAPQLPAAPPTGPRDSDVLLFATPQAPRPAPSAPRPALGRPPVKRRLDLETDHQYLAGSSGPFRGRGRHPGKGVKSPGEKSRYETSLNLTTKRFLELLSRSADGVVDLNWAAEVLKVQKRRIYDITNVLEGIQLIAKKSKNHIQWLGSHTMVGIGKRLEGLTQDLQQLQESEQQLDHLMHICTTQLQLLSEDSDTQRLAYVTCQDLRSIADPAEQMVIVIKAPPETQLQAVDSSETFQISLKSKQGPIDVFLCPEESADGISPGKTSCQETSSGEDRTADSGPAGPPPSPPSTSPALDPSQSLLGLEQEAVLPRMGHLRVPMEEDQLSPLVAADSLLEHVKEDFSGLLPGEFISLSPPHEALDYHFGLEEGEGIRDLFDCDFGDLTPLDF
UniProt Q6NVF0: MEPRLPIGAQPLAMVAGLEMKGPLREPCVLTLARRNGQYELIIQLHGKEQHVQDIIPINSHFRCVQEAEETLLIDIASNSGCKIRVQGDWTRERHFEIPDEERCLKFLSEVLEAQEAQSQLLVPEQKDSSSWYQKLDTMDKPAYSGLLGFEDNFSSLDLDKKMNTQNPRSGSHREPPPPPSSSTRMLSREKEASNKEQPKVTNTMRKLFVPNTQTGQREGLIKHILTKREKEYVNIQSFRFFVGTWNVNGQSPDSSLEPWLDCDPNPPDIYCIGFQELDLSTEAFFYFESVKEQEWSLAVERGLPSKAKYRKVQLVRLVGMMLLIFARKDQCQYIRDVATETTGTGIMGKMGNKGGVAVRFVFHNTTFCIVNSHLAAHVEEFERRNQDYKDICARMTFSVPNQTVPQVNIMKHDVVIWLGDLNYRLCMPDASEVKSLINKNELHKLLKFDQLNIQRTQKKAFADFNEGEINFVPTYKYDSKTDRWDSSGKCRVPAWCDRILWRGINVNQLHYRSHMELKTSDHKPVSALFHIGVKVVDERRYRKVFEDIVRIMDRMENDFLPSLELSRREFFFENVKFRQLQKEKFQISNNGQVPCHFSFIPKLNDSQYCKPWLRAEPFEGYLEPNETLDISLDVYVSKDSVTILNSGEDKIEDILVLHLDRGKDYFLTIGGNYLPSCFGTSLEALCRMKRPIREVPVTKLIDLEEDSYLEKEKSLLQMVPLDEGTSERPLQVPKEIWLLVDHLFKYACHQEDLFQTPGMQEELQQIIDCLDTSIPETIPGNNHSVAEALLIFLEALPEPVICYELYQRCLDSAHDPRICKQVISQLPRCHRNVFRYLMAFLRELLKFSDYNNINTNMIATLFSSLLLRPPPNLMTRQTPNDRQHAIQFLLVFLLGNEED

Substance: OCRL inositol polyphosphate-5-phosphatase (OCRL1) (from UniProt Q6NVF0 1-900)
- binding [1]: binds
- binding [2]: binds

Source: publication PMC10696739
